Mtb growth Cornell: 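Whole-cell assay for inhibitors of Mycobacterium tuberculosis growth, labelled Cornell in the record; the read-out is not stated. The concentration is filed as 10 mM, unlikely as a test dose, so the dose is not known. The record gives no direction; compounds strong in two other growth screens of this library score well above the rest, so higher reads as stronger inhibition. About 53,000 compounds were tested under these conditions; 1.7% (about 900) showed 50% or more at least once.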
Mtb heat-shock: 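Assay on Mycobacterium tuberculosis, filed only as a heat shock assay from Cornell; the read-out is not stated. The concentration is filed as 10 mM, unlikely as a test dose, so the dose is not known. Direction is inferred from retests: higher values go with stronger inhibition. Size under these conditions: about 69,000 compounds, about 930 of them at 50% or above in at least one test.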

Results are given as percent effect.
The controls that fix the scale are not given in the record; negative values are as filed.
Compounds were drawn at random from those tested, without regard to their results.

With Cc1ccccc1N1CCN(C(=O)c2cscn2)C(C)C1 (stereo not given) the screen gave Mtb heat-shock: 10.12%. For CCN(Cc1nc(Cc2ccccc2)no1)C1CC1 the result was Mtb growth Cornell: -4.646%; Mtb heat-shock: -56.3%. CC(C)(C)[S+]([O-])CCNC(=O)c1cccc2ncccc12 (stereo not given) read Mtb growth Cornell: -26.25%; Mtb heat-shock: 8.69%. With CCCN1CCC[C@]2(CCC(=O)N2Cc2ccncc2)[C@H]1CC.O=C(O)C(F)(F)F.O=C(O)C(F)(F)F the screen gave Mtb growth Cornell: 25.54%; Mtb heat-shock: -3.952%.

With CCCn1cc(NC(=O)c2cccc(CN3CC=CC3)c2)nn1 the screen gave Mtb growth Cornell: -23.18%; Mtb heat-shock: -7.923%. For CN(Cc1cccc(F)c1)C(=O)CS(=O)(=O)Cc1c(Cl)cccc1Cl the result was Mtb growth Cornell: 16.78%; Mtb heat-shock: 25.49%. For CC(C)(CNC(=O)Nc1ccc(S(=O)(=O)C(F)F)cc1)N1CCOCC1 the result was Mtb heat-shock: 20.46%. For CN1CCCN(C[C@@H]2CN(c3nc(C(N)=O)cs3)C[C@@H]2CO)CC1 the result was Mtb growth Cornell: 4.237%; Mtb heat-shock: 5.173%.

Result for Cc1nn(C)c(N2CCOCC2)c1CNC1CCc2ccccc21 (stereo not given) was Mtb heat-shock: -11.32%. For O=C(O)C(F)(F)F.O=C(O)C(F)(F)F.O=C(O)C(F)(F)F.[H][C@@]12COC[C@]1(CN(C)C)CN(Cc1ccc3ccccc3n1)C2 the result was Mtb growth Cornell: 23.48%; Mtb heat-shock: -13.03%. CN1CCCN(c2cnn(Cc3ccc(C(C)(C)C)cc3)c(=O)c2)CC1 gave Mtb heat-shock: 13.37%. Result for CCOc1ccc(C(=O)N2CCC(Oc3ccccc3)(C(=O)O)CC2)o1 was Mtb growth Cornell: 4.413%; Mtb heat-shock: -10.69%.

With Cl.OC1(Cn2ccc3ncccc32)CCN(Cc2ccccn2)CC1 the screen gave Mtb growth Cornell: -5.521%; Mtb heat-shock: -23.07%. With CC(C)c1cc(N2CCSCC2)n2nccc2n1 the screen gave Mtb heat-shock: -18.09%. For [H][C@@]12CCN(C(=O)C3CCOCC3)C[C@]1(COC)CCO2 the result was Mtb growth Cornell: -4.745%; Mtb heat-shock: -9.883%. Result for COCCNC(=O)C1CCCN1S(=O)(=O)c1sc(=O)[nH]c1C (stereo not given) was Mtb growth Cornell: 14.47%; Mtb heat-shock: -9.072%.

CCn1cc(NC(=O)C2CCN(Cc3nc(C(C)C)no3)CC2)cn1 gave Mtb growth Cornell: -29.27%; Mtb heat-shock: -4.553%. CN(C)CCN1CC(C(=O)N2CCC(c3cccc(O)c3)CC2)CC1=O (stereo not given) read Mtb growth Cornell: -1.549%; Mtb heat-shock: 3.511%. COc1cccc(OC)c1CN1CC(O)CN(S(C)(=O)=O)CC1=O (stereo not given) gave Mtb growth Cornell: -11.83%; Mtb heat-shock: 55.83%. With CCn1cc(N2Cc3nc(N)ncc3C2=O)cn1 the screen gave Mtb heat-shock: -12.03%.

CN1C(=O)C2(CCN(C(=O)c3ccccc3)CC2)c2cc(F)ccc21.Cl gave Mtb growth Cornell: 0.1792%; Mtb heat-shock: 18.76%. For Cc1nccn1CCCN1CCCC(c2ccccc2)C1 (stereo not given) the result was Mtb growth Cornell: -35.37%; Mtb heat-shock: -7.991%. For CN(C)c1nc2sc(C(=O)N3CCN(C(=O)OC(C)(C)C)CC3)cc2s1 the result was Mtb heat-shock: -5.876%. With COc1ccc(C(=O)C2CCCN(Cc3cccc(F)c3)C2)c(OC)c1 (stereo not given) the screen gave Mtb growth Cornell: 37.48%; Mtb heat-shock: 2.115%.

Result for COC(=O)N1CCN(Cc2ccccc2Cl)CC1 was Mtb heat-shock: -12.81%. CCC(c1ccccc1)N1CCN(C(=O)c2cc(C(N)=O)c[nH]2)CC1 (stereo not given) read Mtb growth Cornell: 28.25%; Mtb heat-shock: 3.821%. O=C(O)C(F)(F)F.O=C(O)C(F)(F)F.[H][C@@]12COC[C@]1([H])[C@@H](OCCN(C)C)CN2Cc1ccoc1 read Mtb growth Cornell: 2.497%; Mtb heat-shock: -17.27%. For Cl.O=C1CC2(CCCNC2)C(=O)N1Cc1ccc(Cl)cc1 (stereo not given) the result was Mtb growth Cornell: 23.9%; Mtb heat-shock: -5.619%.

Result for Cc1ncc(CN)c(-c2cn(C)c3ccccc23)n1 was Mtb growth Cornell: 9.287%; Mtb heat-shock: -0.8919%. [H][C@]12CC[C@]([H])(CN(C3CSCCSC3)C1)N(Cc1cscn1)C2=O read Mtb growth Cornell: 25.21%; Mtb heat-shock: -10.98%. Result for Clc1ccc(C2(NCc3noc(C4CC4)n3)CCCC2)cc1 was Mtb heat-shock: 14.1%. CCCn1cnnc1CNC(=O)C1COc2cc(OC)ccc2C1 (stereo not given) read Mtb growth Cornell: -3.845%; Mtb heat-shock: -11.02%.

With NC(=O)C1CCCN(S(=O)(=O)c2cnn(-c3ccccc3)c2)C1 (stereo not given) the screen gave Mtb heat-shock: -5.965%. For CCN(CC)CCNC(=O)C(C)OCC(F)(F)F (stereo not given) the result was Mtb growth Cornell: -5.167%; Mtb heat-shock: 6.084%. For Cc1cc(C)n(CC2CCCN2C(=O)Cc2c(C)nn(C)c2C)n1 (stereo not given) the result was Mtb heat-shock: -0.2419%. Cc1nn(C)c(N2CCOCC2)c1CNCc1ccc(N(C)C)nc1 read Mtb heat-shock: -11.52%.

O=C(c1cc(COc2ccc3c(c2)OCO3)[nH]n1)N1CCCO1 read Mtb growth Cornell: 80.32%; Mtb heat-shock: 3.928%. Cc1ncccc1CNC(CCO)C1CCCCC1 (stereo not given) gave Mtb heat-shock: -15.43%. For NS(=O)(=O)CCN1CCN(c2cc(F)ccc2F)CC1 the result was Mtb growth Cornell: -28.42%; Mtb heat-shock: -10.17%. Result for O=C(O)C(F)(F)F.[H][C@@]12CN(CC3CCOCC3)C[C@@]1([H])N(CC1CC1)C(=O)CO2 was Mtb growth Cornell: -16.29%; Mtb heat-shock: -5.405%.

With CC(C)c1nc(CN2CCOC(CNc3cccnn3)C2)cs1 (stereo not given) the screen gave Mtb growth Cornell: -13.77%; Mtb heat-shock: -0.09566%. [H][C@@]12CNC[C@]1([H])N(C(=O)c1cccnc1)CCO2 read Mtb growth Cornell: 1.733%; Mtb heat-shock: 7.955%. For O=C(NCc1ccco1)c1cccc(CN2CCCC2CO)c1 (stereo not given) the result was Mtb growth Cornell: -17.82%; Mtb heat-shock: 0%. Result for COCC(c1cccc(C(F)(F)F)c1)N(C)C(=O)c1cc(C)no1 (stereo not given) was Mtb heat-shock: -7.798%.

Some entries from above, unchanged:

* O=C(NCc1ccco1)c1cccc(CN2CCCC2CO)c1 (stereo not given) : Mtb growth Cornell: -17.82%; Mtb heat-shock: 0%
* Cc1ncccc1CNC(CCO)C1CCCCC1 (stereo not given) : Mtb heat-shock: -15.43%
* Cc1nccn1CCCN1CCCC(c2ccccc2)C1 (stereo not given) : Mtb growth Cornell: -35.37%; Mtb heat-shock: -7.991%
* CCCN1CCC[C@]2(CCC(=O)N2Cc2ccncc2)[C@H]1CC.O=C(O)C(F)(F)F.O=C(O)C(F)(F)F : Mtb growth Cornell: 25.54%; Mtb heat-shock: -3.952%

Measurements from “University of Dundee, Small-Polar-MMV Screening Library” (2021), ChEMBL document CHEMBL3988442.